From patent US20250339409A1, “USES OF PAN BET INHIBITORS” (VYNE THERAPEUTICS INC., priority 2021, published 2025)
“And” between values parts separate entries of the source, which are not always exact repeats. Identical values can stand only once. Further values from the same series stand in other lists.

Test system: anti collagen antibodies induced arthritis (ACAIA)
Assay: Anti collagen antibodies induced arthritis (ACAIA) in mice, intra-articular treatment: paw thickness, arthritis clinical score, body weight;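 also: mouse arthritis induced by IV anti-collagen mAb on day 0 plus IP LPS on day 4, with body weight, caliper paw thickness and 0-4 paw score tracked against a day 0 baseline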

## C[C@@H]1C[C@H]2[C@@H]3CCC4=CC(=O)C=C[C@]4(C)[C@@]3(F)[C@@H](O)C[C@]2(C)[C@@]1(O)C(=O)CO [dexamethasone, Dexamethasone, reference compound]
1 mg/kg IA (Group 7), Day 3
  Percent change of weight per day (individual animal): 98.51% and 97.52% and 98.56%
1 mg/kg IA (Group 7), Day 4
  Percent change of weight per day (individual animal): 95.0495% and 94.55% and 96.17%
1 mg/kg IA (Group 7), Day 5
  Percent change of weight per day (individual animal): 90.1% and 87.62% and 90.91%
1 mg/kg IA (Group 7), Day 6
  Percent change of weight per day (individual animal): 87.62% and 84.65% and 85.65%
1 mg/kg IA (Group 7), Day 7
  Percent change of weight per day (individual animal): 86.14% and 78.22% and 89.47%
1 mg/kg IA (Group 7), Day 8
  Percent change of weight per day (individual animal): 89.11% and 81.19% and 90.43%
1 mg/kg IA (Group 7), Day 10
  Percent change of weight per day (individual animal): 90.1% (2×) and 92.82%
1 mg/kg IA (Group 7), Day 12
  Percent change of weight per day (individual animal): 96.17%

## Cn1cc(-c2cccc(O)c2Oc2ccccc2)c2cc[nH]c2c1=O [BETi1]
0.01 mg/kg IA (Group 5), Baseline
  Percent change of weight per day (individual animal): 100%
0.01 mg/kg IA (Group 5), Day 3
  Percent change of weight per day (individual animal): 99.05% and 98.56% and 100.4651% and 97.66% and 99.48% and 100.5348% and 100%
0.01 mg/kg IA (Group 5), Day 4
  Percent change of weight per day (individual animal): 100.4762% and 99.52% and 97.2093% and 100.9346% and 89.69% and 95.19% and 93.33%
0.01 mg/kg IA (Group 5), Day 5
  Percent change of weight per day (individual animal): 92.86% and 89.47% and 88.84% and 94.39% and 85.57% and 89.84% and 87.62%
0.01 mg/kg IA (Group 5), Day 6
  Percent change of weight per day (individual animal): 90.95% and 90.91% and 86.51% and 92.99% and 80.41% and 88.24% and 86.19%
0.01 mg/kg IA (Group 5), Day 7
  Percent change of weight per day (individual animal): 92.38% and 92.3445% and 87.91% and 93.46% and 82.47% and 106.4171% and 88.1%
0.01 mg/kg IA (Group 5), Day 8
  Percent change of weight per day (individual animal): 91.9% and 94.26% and 87.91% and 93.93% and 82.47% and 90.37% and 88.1%
0.01 mg/kg IA (Group 5), Day 10
  Percent change of weight per day (individual animal): 93.33% and 93.3% and 85.12% and 91.1215% and 83.51% and 93.05% and 88.57%
0.01 mg/kg IA (Group 5), Day 12
  Percent change of weight per day (individual animal): 94.7619% and 95.69% and 88.84% and 93.6% and 87.1134% and 97.3262% and 91.9%
0.1 mg/kg IA (Group 4), Baseline
  Percent change of weight per day (individual animal): 100%
0.1 mg/kg IA (Group 4), Day 3
  Percent change of weight per day (individual animal): 99.0099% and 100.9524% and 103.0457% and 102.2831% and 101.4778% and 98.6% and 101.6216%
0.1 mg/kg IA (Group 4), Day 4
  Percent change of weight per day (individual animal): 99.0099% and 101.4286% and 91.37% and 100% and 100.4926% and 99.53% and 103.2432%
0.1 mg/kg IA (Group 4), Day 5
  Percent change of weight per day (individual animal): 89.6% and 90.48% and 84.26% and 93.61% and 95.5665% and 90.23% and 94.05%
0.1 mg/kg IA (Group 4), Day 6
  Percent change of weight per day (individual animal): 85.64% and 89.05% and 83.76% and 89.95% and 91.133% and 87.91% and 92.97%
0.1 mg/kg IA (Group 4), Day 7
  Percent change of weight per day (individual animal): 88.12% and 89.52% and 85.28% and 89.0411% and 89.66% and 87.44% and 90.27%
0.1 mg/kg IA (Group 4), Day 8
  Percent change of weight per day (individual animal): 86.63% and 87.62% and 84.77% and 89.0411% and 90.64% and 85.5814% and 89.73%
0.1 mg/kg IA (Group 4), Day 10
  Percent change of weight per day (individual animal): 90.1% and 90.48% and 85.28% and 88.58% and 87.19% and 88.84% and 90.81%
0.1 mg/kg IA (Group 4), Day 12
  Percent change of weight per day (individual animal): 93.07% and 94.7619% and 88.83% and 94.52% and 92.12% and 93.95% and 97.2973%
1 mg/kg IA (Group 3), Day 3
  Percent change of weight per day (individual animal): 100.5076% and 101.4563%
1 mg/kg IA (Group 3), Day 4
  Percent change of weight per day (individual animal): 101.0152% and 101.9417%
1 mg/kg IA (Group 3), Day 5
  Percent change of weight per day (individual animal): 90.86% and 94.66%
1 mg/kg IA (Group 3), Day 6
  Percent change of weight per day (individual animal): 87.31% and 91.26%
1 mg/kg IA (Group 3), Day 7
  Percent change of weight per day (individual animal): 89.85% and 93.2%
1 mg/kg IA (Group 3), Day 8
  Percent change of weight per day (individual animal): 89.77% and 92.39% and 95.15%
1 mg/kg IA (Group 3), Day 10
  Percent change of weight per day (individual animal): 89.77% and 94.92% and 93.2%
1 mg/kg IA (Group 3), Day 12
  Percent change of weight per day (individual animal): 98.48% and 97.57%
